{"source": "PubChem BioAssay AID504444", "about": "(National Center for Advancing Translational Sciences (NCATS), 2011)", "note": "About 7,500 (2.1%) of roughly 360,000 compounds were called active. Inconclusive results, whose numbers are uncertain, are shown with a selection of clear calls. Calls follow the shape of the dose curve; as a rule, active = well fitted inhibition curve with a large enough effect; inconclusive = small, poorly fitted or top-dose-only effect, or effect the other way; inactive = flat fitted curve, though single readings scatter. A potency beside an inconclusive call is a rough fit, not a confirmed value. Potency is read from the fitted curve at half-maximal effect."}
{"assay": "Nrf2 qHTS screen for inhibitors; also: nearly all actives have a fitted effect of over 60% in size", "conditions": "A549 ARE-Fluc reporter, luciferase luminescence, 18-24 h; series mostly up to 46 µM", "outline": "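A549 ARE_Fluc cells, 5000/well, 5% FBS OPTI-MEM; compounds in dose-response, 18-24 h at 37 °C/5% CO2; CellTiter-Fluor viability read (Ex 405/Em 525), then BugLite luciferase luminescence = Nrf2 activity.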"}
{"smiles": "CC(C)n1c(-c2cccs2)nc2ccccc21", "Potency": "inconclusive: 29.1 µM [falling, single point]"}
{"smiles": "Cc1ccc(CCNC(=O)CCS(=O)(=O)c2ccc3nc(C)sc3c2)cc1", "Potency": "inconclusive: 20.6 µM [activator, partial curve, poor fit]"}
{"smiles": "CNS(=O)(=O)c1cccc(C(=O)OCC(=O)Nc2sc3c(c2C#N)CCCCC3)c1", "Potency": "inconclusive: 20.6 µM [activator, single point]"}
{"smiles": "O=C1N(Cc2cccnc2)C[C@@H]2C[C@@H](c3cccc(Oc4ccccc4)c3)N3CCC[C@@]123", "Potency": "inactive"}
{"smiles": "CC(C)CCNC(=O)C(=O)Nc1ccccc1", "Potency": "inconclusive: 9.2 µM [activator, partial curve]"}
{"smiles": "CN1CCN(C(=O)c2ccc(COc3ccc(C(C)(C)C)cc3)o2)CC1", "Potency": "inconclusive: 1.84 µM [activator, partial curve, poor fit]"}
{"smiles": "CC(C)c1ccc(S(=O)(=O)c2nnn3c2nc(N2CCCCC2)c2sccc23)cc1", "Potency": "inconclusive: 32.6 µM [falling, single point]"}
{"smiles": "COc1ccc(-c2nnn(CC(=O)N(Cc3ccccc3Cl)C(C(=O)NCC3CCCO3)c3ccco3)n2)cc1OC", "note": "(centres undefined)", "Potency": "inconclusive: 5.8 µM [falling, partial curve, poor fit]"}
{"smiles": "O=C(Nc1ccc(S(=O)(=O)N2CCCC2)cc1)c1ccc(Cl)nc1", "Potency": "inconclusive: 23.1 µM [falling, single point]"}
{"smiles": "Cc1ccc(C)c(Cn2c(-c3cccs3)nc3ccccc32)c1", "Potency": "active: 23.1 µM"}
{"smiles": "CC(C)Cc1ccc(S(=O)(=O)Nc2cc3c(cc2N2CCOCC2)n(C)c(=O)c(=O)n3C)cc1", "Potency": "inconclusive: 11.6 µM [falling, partial curve]"}
{"smiles": "Cc1cccc(NC(=O)c2cccc(N3C(=O)C4C5CCC(C5)C4C3=O)c2)c1C", "note": "(centres undefined)", "Potency": "inactive"}
{"smiles": "N=c1sccn1CC(=O)Nc1cccc(S(=O)(=O)N2CCCCCC2)c1", "Potency": "inconclusive: 16.4 µM [falling, partial curve, poor fit]"}
{"smiles": "CCCCC#Cc1ccc2c(c1)COc1c3ccccc3nn1-2", "Potency": "inconclusive: 29.1 µM [activator, single point]"}
{"smiles": "CC1CCCC=CC2CC(OC(=O)CN(C)C)CC2C(O)C=CC(=O)O1", "note": "(centres undefined)", "Potency": "active: 0.206 µM"}
{"smiles": "COc1cc(C(O)P(=O)(OC(C)C)OC(C)C)cc(OC)c1OC", "note": "(centres undefined)", "Potency": "inactive"}
{"smiles": "COc1cc(CNc2ncnc3ccc(-c4c(C)noc4C)cc23)cc(OC)c1OC", "Potency": "inactive"}
{"smiles": "CC(C)n1cc(CN2CCC(C(=O)Nc3ccc(Oc4ccccc4F)cc3)CC2)cn1", "Potency": "inconclusive: 18.4 µM [falling, single point]"}
{"smiles": "Cc1ccc(NC(=O)NC(=O)CN2CCC(C(N)=O)CC2)c(C)c1", "Potency": "inconclusive: 3.66 µM [activator, partial curve]"}
{"smiles": "Cc1cccc(N2CCN(C(=O)c3cn(CC(C)C)c(=O)c4c3c3ccccc3n4C)CC2)c1C", "Potency": "inactive"}
{"smiles": "Cc1ccc(NC(=O)Cn2c(=O)oc3cc(S(=O)(=O)N4CCC(C)CC4)ccc32)cc1C", "Potency": "inconclusive: 20.6 µM [falling, partial curve]"}
{"smiles": "CCOC(=O)C1=C(C)NC(=O)NC1c1ccc([N+](=O)[O-])o1", "note": "(centres undefined)", "Potency": "inactive"}
{"smiles": "COc1ccc(C(=O)NC(=S)NNC(=O)c2cnccn2)cc1OC", "Potency": "inconclusive: 3.66 µM [falling, full curve]"}
{"smiles": "CCCCN1CC2([N+](=O)[O-])C=CC(=O)C([N+](=O)[O-])(C1)C2CC(=O)c1ccccc1", "note": "(centres undefined)", "Potency": "inconclusive: 29.1 µM [falling, single point]"}
{"smiles": "CN(C(=O)c1ccc(NC(=O)Cc2cccc(NC(=O)C3CCCN(C(=O)C4CCCCC4)C3)c2)cc1)C1CCCC1", "note": "(centres undefined)", "Potency": "inconclusive: 25.9 µM [falling, single point]"}
{"smiles": "CC(C)(C)c1cc(C(=O)NNc2cc(C(F)(F)F)ccc2Cl)n(Cc2ccccc2)n1", "Potency": "inconclusive: 29.1 µM [falling, single point]"}
{"smiles": "O=S(=O)(NCCCCCNS(=O)(=O)c1ccccc1)c1ccccc1", "Potency": "inconclusive: 23.1 µM [falling, single point]"}
{"smiles": "Cc1cccc2nc(CSc3ccc(Cl)cc3)cn12", "Potency": "inconclusive: 20.6 µM [activator, partial curve]"}
{"smiles": "CCC(C(=O)Nc1c(C)cc(C)cc1C)n1c(=O)c(-c2ccccc2NC(C)=O)nc2ccccc21", "note": "(centres undefined)", "Potency": "inconclusive: 25.9 µM [falling, partial curve, poor fit]"}
{"smiles": "Cc1cccc(N2CCN(C(=O)c3cccc(S(=O)(=O)N4CCc5ccccc5C4)c3)CC2C)c1", "note": "(centres undefined)", "Potency": "inconclusive: 16.4 µM [falling, single point]"}
{"smiles": "N#Cc1c(N2CCOCC2)nsc1-c1ccccc1", "Potency": "inconclusive: 18.4 µM [activator, single point]"}
{"smiles": "O=C(c1ccc(N2CCCC2)c([N+](=O)[O-])c1)N1CCN(CCO)CC1", "Potency": "inactive"}
{"smiles": "COC(CNC(=O)c1ccc2c3c(onc13)-c1ccccc1C2=O)OC", "Potency": "inconclusive: 2.91 µM [activator, partial curve]"}
{"smiles": "Cc1cccc(NC(=O)CCCCCn2c(=O)[nH]c3ccsc3c2=O)c1", "Potency": "inconclusive: 25.9 µM [falling, single point]"}
{"smiles": "CC(C)c1ccc(CN(Cc2ccco2)c2cnc(S(C)(=O)=O)nc2C(=O)Nc2ccc(F)cc2)cc1", "Potency": "inactive"}
{"smiles": "Fc1ccc(Nc2nc(NCc3ccco3)c3ccccc3n2)cc1", "Potency": "active: 18.4 µM"}
{"smiles": "CCOC(=O)Nc1ccc(S(=O)(=O)NC2CCCCC2)cc1", "Potency": "inconclusive: 20.6 µM [falling, single point]"}
{"smiles": "COc1ccccc1C(=O)Nc1ccncc1", "Potency": "inactive"}
{"smiles": "COc1ccc(/C=C/C(=O)NC(=S)NNC(=O)c2ccco2)cc1", "Potency": "inconclusive: 10.3 µM [falling, partial curve]"}
{"smiles": "COc1ccc(C2c3[nH]c4ccccc4c3CCN2C(=O)c2cn3ccccc3n2)c(F)c1", "note": "(centres undefined)", "Potency": "inconclusive: 20.6 µM [activator, single point]"}
{"smiles": "Cc1cccc(N2CCN(C(=O)Nc3cn(CC(C)C)c(=O)c4ccccc34)CC2)c1C", "Potency": "inconclusive: 9.2 µM [falling, single point]"}
{"smiles": "CCOc1ccc(NC(=S)N(Cc2ccc(Cl)cc2)Cc2ccco2)cc1", "Potency": "inconclusive: 20.6 µM [falling, single point]"}
{"smiles": "COC(=O)c1sccc1NC(=O)c1cc2c(s1)CCCC2", "Potency": "inconclusive: 9.2 µM [activator, partial curve]"}
{"smiles": "Cc1cccc(C(=O)NCCC(=O)Nc2ccc(C)c(F)c2)c1", "Potency": "inconclusive: 20.6 µM [falling, single point]"}
{"smiles": "Cc1ccccc1-c1nc2cc(NC(=O)Cc3ccc(Cl)cc3)ccc2o1", "Potency": "inconclusive: 0.103 µM [falling, full curve, poor fit]"}
{"smiles": "CCOc1ccccc1CNC(=O)C1CCN(c2nn3cc(-c4ccc(F)cc4)nc3s2)CC1", "Potency": "inconclusive: 13 µM [activator, partial curve, poor fit]"}
{"smiles": "N#Cc1c2n(c3c(=O)n(Cc4ccccc4Cl)cnc13)CCCCC2", "Potency": "inconclusive: 29.1 µM [activator, single point]"}
{"smiles": "Cc1cccc(N2CCN(C(=O)c3cccc(-n4c(C)nc5cccnc54)c3)CC2)c1C", "Potency": "inconclusive: 16.4 µM [falling, partial curve, poor fit]"}
{"smiles": "COc1ccc(N=CC2=C(O)c3ccccc3C2=O)c(OC)c1", "Potency": "inconclusive: 25.9 µM [falling, single point]"}
{"smiles": "COC(=O)c1ccc(S(=O)(=O)N(CCO)Cc2ccccc2)n1C", "Potency": "inconclusive: 14.6 µM [falling, single point]"}
{"smiles": "Cc1nnc(SCCn2c(N3CCC(Cc4ccccc4)CC3)nc3c2c(=O)[nH]c(=O)n3C)s1", "Potency": "inactive"}
{"smiles": "O=C(c1ccc2c(=O)n(CCc3ccccc3)c(=O)[nH]c2c1)N1CCN(c2ccc(F)cc2)CC1", "Potency": "inconclusive: 3.66 µM [falling, partial curve, poor fit]"}
{"smiles": "Cc1nn(-c2ccccc2)c2c1N(CC(=O)N1CCN(c3cccc(Cl)c3)CC1)C(=O)CS2", "Potency": "inconclusive: 18.4 µM [falling, partial curve, poor fit]"}
{"smiles": "COc1ccc(Cn2c(=O)c3oc4ccccc4c3n(Cc3cccc(C(F)(F)F)c3)c2=O)cc1", "Potency": "inactive"}
{"smiles": "Cc1ccc(N(CC(=O)NCCSCc2ccco2)S(C)(=O)=O)cc1", "Potency": "inactive"}
{"smiles": "Cc1cc(C)c(NC(=O)CSCc2c(C)noc2C)c(C)c1", "Potency": "inactive"}
{"smiles": "C(=Cc1c[nH]c2ccccc12)c1nccc2ccccc12", "Potency": "inconclusive: 2.06 µM [activator, full curve]"}
{"smiles": "CCCCCC(=O)Nc1cccc(C2=NOC3(C2)C[C@H](C(N)=O)N(C(=O)c2ccccc2)C3)c1", "note": "(some centres undefined)", "Potency": "inconclusive: 2.91 µM [falling, single point]"}
{"smiles": "CCOC(=O)C1=C(O)/C(=C/c2ccccn2)SC1=Nc1ccc(Cl)cc1", "Potency": "inconclusive: 20.6 µM [falling, single point]"}
{"smiles": "O=C(CSc1oc(-c2cccs2)nc1S(=O)(=O)c1ccccc1)NC1CCCCC1", "Potency": "inconclusive: 32.6 µM [falling, partial curve, poor fit]"}
{"smiles": "CCc1nn(CC(=O)NCCCN(CC(C)C)CC(C)C)c(=O)c2cc3sc(C)cc3n12", "Potency": "inconclusive: 5.17 µM [activator, single point]"}
{"smiles": "O=C(Nc1nc2ccccc2n1CCN1CCOCC1)c1cn(-c2ccccc2)nc1-c1ccccc1", "Potency": "active: 20.6 µM"}
{"smiles": "Brc1ccccc1OCCCn1cnc2ccccc21", "Potency": "inconclusive: 9.2 µM [activator, partial curve, poor fit]"}
{"smiles": "Cn1nnc(NC(=O)C(c2ccccc2)c2ccccc2)n1", "Potency": "inconclusive: 0.058 µM [falling, partial curve, poor fit]"}
